# No constants are given. Whether binding was seen depends on the method and setting. In cells and extracts the contact can be indirect. These calls come from enrichment with a bait or labelling near it, and not all partners need be listed.
# Amino acid sequences for entries named in this document (tags omitted). Residues count along the entry.
# UniProt Q9C0K0: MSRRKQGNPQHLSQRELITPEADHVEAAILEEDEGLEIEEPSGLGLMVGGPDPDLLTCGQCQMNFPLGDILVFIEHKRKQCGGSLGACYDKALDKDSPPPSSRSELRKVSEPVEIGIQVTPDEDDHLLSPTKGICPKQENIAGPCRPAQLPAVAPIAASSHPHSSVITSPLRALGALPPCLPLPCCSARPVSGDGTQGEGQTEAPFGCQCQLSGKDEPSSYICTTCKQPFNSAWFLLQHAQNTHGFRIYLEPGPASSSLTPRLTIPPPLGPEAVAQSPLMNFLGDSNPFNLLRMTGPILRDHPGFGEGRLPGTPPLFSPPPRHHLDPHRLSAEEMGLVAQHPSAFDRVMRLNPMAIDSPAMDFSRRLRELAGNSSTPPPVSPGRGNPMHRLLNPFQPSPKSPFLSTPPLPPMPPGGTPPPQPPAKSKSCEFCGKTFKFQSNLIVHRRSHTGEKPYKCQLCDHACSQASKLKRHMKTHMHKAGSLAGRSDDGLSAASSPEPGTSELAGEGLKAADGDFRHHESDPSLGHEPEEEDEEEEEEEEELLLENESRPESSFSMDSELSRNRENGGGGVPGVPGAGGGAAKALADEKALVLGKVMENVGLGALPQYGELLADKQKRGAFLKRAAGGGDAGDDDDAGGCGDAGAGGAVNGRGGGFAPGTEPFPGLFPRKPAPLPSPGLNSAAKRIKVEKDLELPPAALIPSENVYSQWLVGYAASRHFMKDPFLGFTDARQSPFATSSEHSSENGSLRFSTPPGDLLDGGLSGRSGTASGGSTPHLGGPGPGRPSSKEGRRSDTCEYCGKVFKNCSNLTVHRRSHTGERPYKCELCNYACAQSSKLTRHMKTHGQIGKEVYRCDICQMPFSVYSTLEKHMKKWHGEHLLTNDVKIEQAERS
# UniProt Q07021, residues 74-282: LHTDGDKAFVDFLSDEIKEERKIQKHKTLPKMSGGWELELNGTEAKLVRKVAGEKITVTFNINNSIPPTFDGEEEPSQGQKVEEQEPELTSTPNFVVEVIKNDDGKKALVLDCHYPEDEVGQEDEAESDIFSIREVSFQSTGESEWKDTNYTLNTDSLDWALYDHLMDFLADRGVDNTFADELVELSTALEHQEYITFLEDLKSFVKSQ
# UniProt Q13547: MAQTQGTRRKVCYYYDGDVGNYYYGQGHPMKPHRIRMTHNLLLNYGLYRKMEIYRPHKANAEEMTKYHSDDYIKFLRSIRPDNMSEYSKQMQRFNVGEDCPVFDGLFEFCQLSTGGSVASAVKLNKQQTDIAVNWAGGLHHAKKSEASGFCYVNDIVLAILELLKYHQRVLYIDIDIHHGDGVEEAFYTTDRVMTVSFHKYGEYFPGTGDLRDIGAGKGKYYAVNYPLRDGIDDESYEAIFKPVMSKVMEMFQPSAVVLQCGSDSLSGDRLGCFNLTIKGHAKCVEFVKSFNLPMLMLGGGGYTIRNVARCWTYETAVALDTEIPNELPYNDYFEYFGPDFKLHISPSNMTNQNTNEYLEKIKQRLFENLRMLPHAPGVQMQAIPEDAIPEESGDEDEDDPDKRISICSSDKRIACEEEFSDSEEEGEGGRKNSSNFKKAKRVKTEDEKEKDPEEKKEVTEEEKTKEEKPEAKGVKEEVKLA
# UniProt Q92769: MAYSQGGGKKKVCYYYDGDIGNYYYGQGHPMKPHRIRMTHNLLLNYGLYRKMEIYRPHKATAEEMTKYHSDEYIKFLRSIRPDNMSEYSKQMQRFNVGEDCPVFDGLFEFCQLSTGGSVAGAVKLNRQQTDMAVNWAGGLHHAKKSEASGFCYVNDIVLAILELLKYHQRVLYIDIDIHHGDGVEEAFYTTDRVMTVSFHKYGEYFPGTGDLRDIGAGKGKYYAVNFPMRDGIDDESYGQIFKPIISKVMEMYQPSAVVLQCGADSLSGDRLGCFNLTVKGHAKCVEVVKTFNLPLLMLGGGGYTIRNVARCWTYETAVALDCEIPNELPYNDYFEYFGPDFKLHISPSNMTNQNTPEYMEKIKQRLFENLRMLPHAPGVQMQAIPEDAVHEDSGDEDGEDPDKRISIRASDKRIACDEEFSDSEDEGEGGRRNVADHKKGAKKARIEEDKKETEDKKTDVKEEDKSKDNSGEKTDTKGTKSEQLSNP
# UniProt Q09028: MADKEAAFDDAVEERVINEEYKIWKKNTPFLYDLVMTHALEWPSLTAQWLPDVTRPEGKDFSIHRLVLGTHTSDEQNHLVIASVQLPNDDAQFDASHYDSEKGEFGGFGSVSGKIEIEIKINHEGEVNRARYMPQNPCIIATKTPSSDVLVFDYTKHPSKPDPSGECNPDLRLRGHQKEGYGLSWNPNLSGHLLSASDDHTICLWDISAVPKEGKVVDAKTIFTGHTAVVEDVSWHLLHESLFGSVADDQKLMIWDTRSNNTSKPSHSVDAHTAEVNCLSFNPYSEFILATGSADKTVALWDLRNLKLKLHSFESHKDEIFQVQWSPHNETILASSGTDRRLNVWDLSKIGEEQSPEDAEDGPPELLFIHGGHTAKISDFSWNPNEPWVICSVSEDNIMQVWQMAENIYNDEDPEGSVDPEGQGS
# UniProt Q03112: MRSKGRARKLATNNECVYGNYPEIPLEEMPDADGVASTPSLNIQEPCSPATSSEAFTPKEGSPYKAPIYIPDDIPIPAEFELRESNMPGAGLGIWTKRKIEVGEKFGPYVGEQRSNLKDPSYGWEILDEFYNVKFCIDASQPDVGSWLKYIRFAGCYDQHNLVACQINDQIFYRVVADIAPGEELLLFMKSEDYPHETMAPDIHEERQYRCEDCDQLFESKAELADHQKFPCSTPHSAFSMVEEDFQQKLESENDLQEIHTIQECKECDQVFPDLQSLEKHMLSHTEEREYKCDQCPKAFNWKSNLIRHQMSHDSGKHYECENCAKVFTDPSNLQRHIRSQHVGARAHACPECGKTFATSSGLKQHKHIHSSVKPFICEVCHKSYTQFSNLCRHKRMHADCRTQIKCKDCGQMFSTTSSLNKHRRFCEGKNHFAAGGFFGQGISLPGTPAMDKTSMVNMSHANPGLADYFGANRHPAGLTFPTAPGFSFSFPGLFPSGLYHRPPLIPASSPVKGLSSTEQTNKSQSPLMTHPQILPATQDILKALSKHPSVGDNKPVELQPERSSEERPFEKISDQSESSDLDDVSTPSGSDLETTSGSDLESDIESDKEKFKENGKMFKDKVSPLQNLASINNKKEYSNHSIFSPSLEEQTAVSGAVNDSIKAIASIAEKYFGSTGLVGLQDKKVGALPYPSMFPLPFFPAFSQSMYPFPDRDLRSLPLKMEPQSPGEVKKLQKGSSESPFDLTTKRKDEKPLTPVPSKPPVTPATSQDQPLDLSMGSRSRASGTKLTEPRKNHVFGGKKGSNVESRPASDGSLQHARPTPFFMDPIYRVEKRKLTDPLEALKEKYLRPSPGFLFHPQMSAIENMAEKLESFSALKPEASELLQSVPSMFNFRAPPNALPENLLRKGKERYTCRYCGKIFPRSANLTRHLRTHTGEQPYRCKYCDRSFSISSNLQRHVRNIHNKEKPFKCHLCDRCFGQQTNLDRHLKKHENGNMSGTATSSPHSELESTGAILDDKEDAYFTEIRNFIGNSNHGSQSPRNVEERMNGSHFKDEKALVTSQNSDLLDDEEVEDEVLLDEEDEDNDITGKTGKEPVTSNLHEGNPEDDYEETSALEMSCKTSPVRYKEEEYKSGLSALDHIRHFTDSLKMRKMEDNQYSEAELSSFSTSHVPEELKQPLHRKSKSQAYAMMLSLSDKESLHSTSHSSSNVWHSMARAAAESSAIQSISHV
# UniProt Q9ULL5: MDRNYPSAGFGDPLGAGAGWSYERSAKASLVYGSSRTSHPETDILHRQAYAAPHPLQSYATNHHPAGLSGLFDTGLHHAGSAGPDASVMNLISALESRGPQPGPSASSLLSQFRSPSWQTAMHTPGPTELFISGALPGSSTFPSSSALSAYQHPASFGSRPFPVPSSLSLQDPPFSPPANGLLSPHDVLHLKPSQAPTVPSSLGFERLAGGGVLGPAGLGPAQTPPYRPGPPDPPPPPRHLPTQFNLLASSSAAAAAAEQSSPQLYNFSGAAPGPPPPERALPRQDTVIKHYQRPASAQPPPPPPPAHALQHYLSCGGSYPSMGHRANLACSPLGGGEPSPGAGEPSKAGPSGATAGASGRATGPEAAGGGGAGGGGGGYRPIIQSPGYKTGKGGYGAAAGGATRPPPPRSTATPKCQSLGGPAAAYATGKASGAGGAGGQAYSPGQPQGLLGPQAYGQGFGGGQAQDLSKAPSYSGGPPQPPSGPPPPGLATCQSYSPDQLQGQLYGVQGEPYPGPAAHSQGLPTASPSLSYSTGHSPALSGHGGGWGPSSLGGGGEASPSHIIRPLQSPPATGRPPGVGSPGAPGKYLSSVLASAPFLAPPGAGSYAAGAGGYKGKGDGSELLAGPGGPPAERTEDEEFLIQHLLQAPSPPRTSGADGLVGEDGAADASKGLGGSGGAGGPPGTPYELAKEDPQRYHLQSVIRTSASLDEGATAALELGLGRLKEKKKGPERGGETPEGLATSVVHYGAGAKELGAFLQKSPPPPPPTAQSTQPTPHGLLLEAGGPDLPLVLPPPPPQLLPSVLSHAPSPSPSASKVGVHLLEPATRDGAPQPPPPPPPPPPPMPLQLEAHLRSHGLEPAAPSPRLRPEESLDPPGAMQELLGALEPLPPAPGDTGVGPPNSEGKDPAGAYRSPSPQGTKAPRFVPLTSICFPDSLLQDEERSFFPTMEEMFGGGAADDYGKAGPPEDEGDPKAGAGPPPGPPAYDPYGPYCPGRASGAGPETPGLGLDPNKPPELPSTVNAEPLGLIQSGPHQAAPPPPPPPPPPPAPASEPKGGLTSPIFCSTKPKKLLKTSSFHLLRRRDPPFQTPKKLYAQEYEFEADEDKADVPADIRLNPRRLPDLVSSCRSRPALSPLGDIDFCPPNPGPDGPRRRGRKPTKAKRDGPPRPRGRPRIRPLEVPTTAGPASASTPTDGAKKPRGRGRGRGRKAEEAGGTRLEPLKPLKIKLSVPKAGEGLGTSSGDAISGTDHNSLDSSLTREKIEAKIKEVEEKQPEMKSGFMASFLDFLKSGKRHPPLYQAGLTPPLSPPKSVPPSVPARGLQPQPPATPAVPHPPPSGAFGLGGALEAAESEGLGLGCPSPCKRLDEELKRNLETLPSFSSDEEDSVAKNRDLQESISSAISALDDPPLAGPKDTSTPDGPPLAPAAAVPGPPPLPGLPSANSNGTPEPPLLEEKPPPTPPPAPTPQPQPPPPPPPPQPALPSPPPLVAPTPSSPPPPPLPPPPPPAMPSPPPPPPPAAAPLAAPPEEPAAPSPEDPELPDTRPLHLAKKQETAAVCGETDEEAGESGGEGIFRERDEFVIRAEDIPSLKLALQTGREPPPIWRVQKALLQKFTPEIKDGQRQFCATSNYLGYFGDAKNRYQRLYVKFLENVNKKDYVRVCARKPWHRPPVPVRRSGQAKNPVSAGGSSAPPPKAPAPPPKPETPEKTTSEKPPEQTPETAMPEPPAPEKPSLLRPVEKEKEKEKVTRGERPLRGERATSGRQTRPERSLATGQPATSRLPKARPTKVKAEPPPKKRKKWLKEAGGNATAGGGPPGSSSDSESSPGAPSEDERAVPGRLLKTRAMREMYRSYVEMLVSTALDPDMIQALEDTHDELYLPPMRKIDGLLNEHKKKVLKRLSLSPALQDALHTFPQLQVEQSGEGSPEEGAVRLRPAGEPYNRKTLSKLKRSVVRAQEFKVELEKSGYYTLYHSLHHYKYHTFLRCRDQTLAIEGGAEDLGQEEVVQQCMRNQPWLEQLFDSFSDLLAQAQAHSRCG
# UniProt O15156: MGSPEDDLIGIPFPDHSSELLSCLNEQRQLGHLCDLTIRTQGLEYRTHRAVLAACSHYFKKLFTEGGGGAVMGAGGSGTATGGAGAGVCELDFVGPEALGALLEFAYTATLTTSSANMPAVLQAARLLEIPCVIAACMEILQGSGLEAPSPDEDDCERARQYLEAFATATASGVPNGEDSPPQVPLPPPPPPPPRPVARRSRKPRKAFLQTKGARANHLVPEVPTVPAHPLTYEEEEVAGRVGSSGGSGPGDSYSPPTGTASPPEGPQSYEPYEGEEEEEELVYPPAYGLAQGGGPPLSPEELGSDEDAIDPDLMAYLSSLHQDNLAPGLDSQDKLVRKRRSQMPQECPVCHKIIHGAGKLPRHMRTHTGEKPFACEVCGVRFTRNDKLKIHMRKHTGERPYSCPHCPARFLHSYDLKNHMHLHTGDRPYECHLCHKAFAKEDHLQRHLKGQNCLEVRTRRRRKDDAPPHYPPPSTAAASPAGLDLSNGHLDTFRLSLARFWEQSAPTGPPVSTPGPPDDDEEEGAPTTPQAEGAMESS
# Molecular target: TTE-MBD2 (TY1-TY1-ER tagged human full length MBD2) (human) (UniProt Q9UBB5)
# Assay: affinity purification with mass spectrometry; Ty1 immunoprecipitation (5 µg BB2 antibody, protein A/G plus-agarose beads) from 500 µg nuclear proteins of TTE-MBD2 MCF-7, over night at 4°C, triplicates; on-bead trypsin digestion, label-free quantitation (MaxQuant); WT MCF-7 as control
row,binding,Substance
1,binds,B-cell lymphoma/leukemia 11B (from UniProt Q9C0K0 1-894)
2,binds,C-terminal-binding protein 2 (from UniProt P56545 1-445)
3,binds,Chromodomain-helicase-DNA-binding protein 3 (from UniProt Q12873 1-2000)
4,binds,Chromodomain-helicase-DNA-binding protein 4 (from UniProt Q14839 1-1912)
5,binds,Complement component 1 Q subcomponent-binding protein (from UniProt Q07021 74-282)
6,binds,Histone deacetylase 1 (from UniProt Q13547 1-482)
7,binds,Histone deacetylase 2 (from UniProt Q92769 1-488)
8,binds,Histone-binding protein RBBP4 (from UniProt Q09028 1-425)
9,binds,Homeobox protein cut-like 1 (from UniProt P39880 1-1505)
10,binds,MDS1 and EVI1 complex locus protein EVI1 (from UniProt Q03112 1-1230)
11,binds,Proline-rich protein 12 (from UniProt Q9ULL5 1-2036)
12,binds,Zinc finger and BTB domain-containing protein 7B (from UniProt O15156 1-539)
13,binds,Zinc finger protein castor homolog 1 (from UniProt Q86V15 1-1759)

# Reference: publication PMC4057170
